Laboratory results as given in patent EP2181589A1, “Neurotoxic sterol glycosides” (Shaw, Christopher Ariel, priority 2008, dated 2010).
For at least one compound, name, drawing or mass did not settle the structure.

Tested on: Motor Neurons per lumbar cord section
Assay: Motor neuron counts, cresyl violet (Nissl) histology
Type: in vivo, CD-1 mice
Details: SG-fed vs control; 52 weeks (figure legend)
Description: The synthetic SG was mixed with finely ground Purina Chow mouse pellets (Mouse Diet™, Purina) to create the experimental pellets with a SG content of 1000 µg per pellet. Dry materials were blended with a sterile silicon spatula. For every 5 g of standard feed, 2.5 mL of doubly-distilled water (dd)H2O was added and the dough was kneaded and round up into pellets. A single sterol glucoside containing pellet was placed in the feeding tray each morning before the addition of regular mouse chow (ad libitum). All experimental pellets were entirely consumed by the mice each day. Control mice were fed standard mouse chow pellets of identical weight with no additives. SG feeding was conducted daily for 15 weeks and mice were behaviorally monitored until sacrifice at 35 weeks (time point 1) or 52 weeks (time point 2).
Mice were sacrificed for histological analysis at 35 weeks (35.9-48.6 g) and 52 weeks (41.2-51.4 g) of age. Age-matched control mice from each time point were included for comparison. […]
Histology and quantification of motor neurons: Spinal cord and brain sections from each animal were stained for Nissl body substance. […]

CCC(C=CC(C)C1CCC2C3CC=C4CC(OC5OC(CO)C(O)C(O)C5O)CCC4(C)C3CCC12C)C(C)C (stereo not shown) [SG]
total number of α-motor neurons: - 47%
